Test results reported in doi:10.1101/2024.07.17.603870.

Experiments:
Test in all cases: two-hybrid
[1] = molecular target: T1, ABSCISIC ACID … FIVE BINDING PROTEIN 1 (AFP1), BD fusion (Arabidopsis) (UniProt Q9LQ98)
T1 sequence: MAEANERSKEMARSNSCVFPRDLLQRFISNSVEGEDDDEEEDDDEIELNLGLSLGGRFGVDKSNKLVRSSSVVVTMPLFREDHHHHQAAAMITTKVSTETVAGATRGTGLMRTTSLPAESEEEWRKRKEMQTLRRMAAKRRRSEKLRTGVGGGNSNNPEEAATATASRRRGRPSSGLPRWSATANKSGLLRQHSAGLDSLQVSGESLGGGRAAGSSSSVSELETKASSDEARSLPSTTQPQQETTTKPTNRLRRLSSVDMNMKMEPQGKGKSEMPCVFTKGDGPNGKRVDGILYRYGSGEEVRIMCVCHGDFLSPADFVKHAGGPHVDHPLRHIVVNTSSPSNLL

[2] = molecular target: T2, ABSCISIC ACID … FIVE BINDING PROTEIN 3 (AFP3), BD fusion (Arabidopsis) (UniProt Q94F39)
T2 sequence: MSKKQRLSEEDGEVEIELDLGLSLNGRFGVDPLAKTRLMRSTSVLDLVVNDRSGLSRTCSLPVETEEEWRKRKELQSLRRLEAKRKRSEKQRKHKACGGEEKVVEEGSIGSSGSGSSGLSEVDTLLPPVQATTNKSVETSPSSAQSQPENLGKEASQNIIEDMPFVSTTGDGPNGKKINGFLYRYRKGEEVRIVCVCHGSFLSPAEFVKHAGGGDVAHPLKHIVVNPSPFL

[3] = molecular target: T3, ABSCISIC ACID … FIVE BINDING PROTEIN 4 (AFP4), BD fusion (Arabidopsis) (UniProt Q9S7Z2)
T3 sequence: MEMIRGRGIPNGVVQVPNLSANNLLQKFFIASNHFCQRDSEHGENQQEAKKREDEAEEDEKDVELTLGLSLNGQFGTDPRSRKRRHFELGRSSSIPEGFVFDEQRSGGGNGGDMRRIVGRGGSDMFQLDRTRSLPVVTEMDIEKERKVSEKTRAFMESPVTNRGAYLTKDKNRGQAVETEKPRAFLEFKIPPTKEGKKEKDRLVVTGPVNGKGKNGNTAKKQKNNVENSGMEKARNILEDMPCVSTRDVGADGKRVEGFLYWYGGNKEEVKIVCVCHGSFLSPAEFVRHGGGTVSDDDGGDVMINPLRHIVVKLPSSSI

[4] = molecular target: T4, ABSCISIC ACID … FIVE BINDING PROTEIN 2 (AFP2), BD fusion (Arabidopsis) (UniProt Q9LMX5)
T4 sequence: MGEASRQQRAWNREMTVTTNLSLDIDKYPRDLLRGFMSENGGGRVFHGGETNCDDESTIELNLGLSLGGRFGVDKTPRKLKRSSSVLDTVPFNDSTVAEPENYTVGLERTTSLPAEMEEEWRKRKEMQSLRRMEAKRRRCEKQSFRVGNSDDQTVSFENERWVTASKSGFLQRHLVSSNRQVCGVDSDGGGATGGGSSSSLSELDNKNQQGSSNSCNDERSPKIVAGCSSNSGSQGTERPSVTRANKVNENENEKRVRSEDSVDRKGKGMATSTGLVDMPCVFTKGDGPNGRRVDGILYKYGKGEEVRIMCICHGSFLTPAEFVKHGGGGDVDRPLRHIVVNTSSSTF

Measured: binding

HAB1, two-hybrid fusion (Arabidopsis) (enzyme)
no binding: all assays above

HAI3, two-hybrid fusion (Arabidopsis) (enzyme)
no binding: all assays above

No constants are given. Whether binding was seen depends on the method and setting. Where a sequence is shown, tags or fusion partners need not be part of it.
